Laboratory results as given in patent US20250277186A1, “COMPOUND MICROBIAL INOCULUM WITH BACTERIOSTATIC EFFECT AND USE THEREOF IN PREPARATION OF YOGURT” (priority 2023, published 2025).
At least one compound was matched to its structure with a doubt left.

Key:
[1] = system: Lacticaseibacillus rhamnosus FMBL L23004 CNN; experiment: Antibiotic sensitivity, drug-sensitive paper; assay type: cell-based; settings: text statement for the two strains
Procedure: (§1) After two strains were cultured anaerobically at 37° C. at a 2% inoculation rate for 24 h, 100 μL (about 1×10^7 cfu/mL) of a bacteria solution of each strain was coated on the surface of an MRS solid medium, and then drug-sensitive paper (purchased from Oxoid Company, UK) was lightly pressed tightly in the middle of each of the mediums; and after anaerobic culture was carried out at 37° C. for 24 h, the bacteriostatic condition of the drug-sensitive paper was observed, and the diameter of the inhibition zone was measured.

[2] = system: Lactiplantibacillus plantarum FMBL L23036 CNN; experiment: Antibiotic sensitivity, drug-sensitive paper; assay type: cell-based; settings: text statement for the two strains
Procedure: as §1

Structure (SMILES)	Resistant / sensitive, Lacticaseibacillus rhamnosus FMBL L23004 CNN [1]	Resistant / sensitive, Lactiplantibacillus plantarum FMBL L23036 CNN [2]
CCC[C@@H]1C[C@@H](C(=O)N[C@@H]([C@H]2O[C@H](SC)[C@H](O)[C@@H](O)[C@H]2O)[C@H](C)Cl)N(C)C1 [Clindamycin]	sensitive	sensitive
CN(C)[C@@H]1C(O)=C(C(N)=O)C(=O)[C@@]2(O)C(O)=C3C(=O)c4c(O)cccc4[C@@](C)(O)[C@H]3C[C@@H]12 [Tetracycline]	sensitive	sensitive
NC[C@H]1O[C@H](O[C@H]2[C@H](O)[C@@H](O[C@H]3O[C@H](CO)[C@@H](O)[C@H](N)[C@H]3O)[C@H](N)C[C@@H]2N)[C@H](O)[C@@H](O)[C@@H]1O [Kanamycin]	resistant	resistant
CO[C@H]1/C=C/O[C@@]2(C)Oc3c(C)c(O)c4c(O)c(c(/C=N/N5CCN(C)CC5)c(O)c4c3C2=O)NC(=O)/C(C)=C\C=C\[C@H](C)[C@H](O)[C@@H](C)[C@@H](O)[C@@H](C)[C@H](OC(C)=O)[C@@H]1C [Rifampicin]	sensitive	sensitive
CN(C)c1ccc(O)c2c1C[C@H]1C[C@H]3[C@H](N(C)C)C(O)=C(C(N)=O)C(=O)[C@@]3(O)C(O)=C1C2=O [Minocycline]	sensitive	sensitive
